{"source": "paper PMC7862700", "assay_in_all_cases": "DAPPL (digital affinity profiling via proximity ligation, sequencing)", "conditions_in_all_cases": "10 mM Tris-HCl pH 7.5, 50 mM NaCl, 1 mM DTT, 4% glycerol, room temperature, 30 min; GST-TFs on glutathione beads, 16-mer random dsDNA library, 0.1% …; high values mean tight binding; double strand, one strand shown; scale: fold enrichment (6-mer frequency, TF over GST control)", "key": {"GABPA": {"biological_target": "T1, GABPA (UniProt Q06546)", "T1 sequence": "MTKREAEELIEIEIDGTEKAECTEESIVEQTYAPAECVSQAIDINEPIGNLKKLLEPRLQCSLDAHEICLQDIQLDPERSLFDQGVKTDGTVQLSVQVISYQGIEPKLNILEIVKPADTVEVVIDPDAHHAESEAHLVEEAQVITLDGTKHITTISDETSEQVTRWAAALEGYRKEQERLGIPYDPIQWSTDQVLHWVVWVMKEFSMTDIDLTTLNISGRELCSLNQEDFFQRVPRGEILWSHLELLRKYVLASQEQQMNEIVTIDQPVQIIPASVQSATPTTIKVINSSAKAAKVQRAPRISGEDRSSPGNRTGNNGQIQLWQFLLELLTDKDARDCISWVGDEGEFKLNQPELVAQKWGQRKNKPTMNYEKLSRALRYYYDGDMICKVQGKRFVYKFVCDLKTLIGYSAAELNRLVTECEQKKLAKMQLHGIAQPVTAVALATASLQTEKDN"}, "ETS1": {"biological_target": "T2, ETS1 (UniProt P14921)", "T2 sequence": "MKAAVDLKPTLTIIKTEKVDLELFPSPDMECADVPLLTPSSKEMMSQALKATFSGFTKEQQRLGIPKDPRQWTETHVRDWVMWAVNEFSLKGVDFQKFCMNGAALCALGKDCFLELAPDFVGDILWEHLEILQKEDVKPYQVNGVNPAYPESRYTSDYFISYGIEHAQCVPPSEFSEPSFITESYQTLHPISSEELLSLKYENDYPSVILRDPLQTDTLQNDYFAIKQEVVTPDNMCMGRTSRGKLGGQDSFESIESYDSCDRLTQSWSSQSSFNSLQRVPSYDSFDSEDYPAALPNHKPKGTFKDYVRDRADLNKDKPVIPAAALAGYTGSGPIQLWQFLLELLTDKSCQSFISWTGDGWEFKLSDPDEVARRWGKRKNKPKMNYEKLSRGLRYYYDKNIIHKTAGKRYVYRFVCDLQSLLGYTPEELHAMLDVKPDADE"}, "SPDEF": {"biological_target": "T3, SPDEF (UniProt O95238)", "T3 sequence": "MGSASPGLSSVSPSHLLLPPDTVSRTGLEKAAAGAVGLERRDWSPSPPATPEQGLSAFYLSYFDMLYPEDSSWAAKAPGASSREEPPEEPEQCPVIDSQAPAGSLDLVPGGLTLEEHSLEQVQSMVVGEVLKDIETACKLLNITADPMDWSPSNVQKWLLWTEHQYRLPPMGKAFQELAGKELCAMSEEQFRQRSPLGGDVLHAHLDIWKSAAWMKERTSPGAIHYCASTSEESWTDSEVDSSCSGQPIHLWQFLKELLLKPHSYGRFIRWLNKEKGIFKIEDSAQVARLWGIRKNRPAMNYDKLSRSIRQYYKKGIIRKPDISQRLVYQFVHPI"}}, "note": "This is a selection; strong and weak results do not stand in their true shares. For part of these data: At the low end of the ranking, values are background and their order means little. The list shows a part of the results. For part of these data: The exact form of the protein is not confirmed.", "data": [{"sequence": "TCGGGT", "values": [{"measurement": "binding signal", "setting": "GABPA", "value": 0.549}, {"measurement": "binding signal", "setting": "ETS1", "value": 0.664}, {"measurement": "binding signal", "setting": "SPDEF", "value": 0.621}]}, {"sequence": "AGACGA", "values": [{"measurement": "binding signal", "setting": "GABPA", "value": 0.706}, {"measurement": "binding signal", "setting": "ETS1", "value": 0.719}, {"measurement": "binding signal", "setting": "SPDEF", "value": 0.704}]}, {"sequence": "GGCGAA", "values": [{"measurement": "binding signal", "setting": "GABPA", "value": 0.731}, {"measurement": "binding signal", "setting": "ETS1", "value": 0.694}, {"measurement": "binding signal", "setting": "SPDEF", "value": 0.611}]}, {"sequence": "CAGCTG", "values": [{"measurement": "binding signal", "setting": "GABPA", "value": 0.83}, {"measurement": "binding signal", "setting": "ETS1", "value": 0.837}, {"measurement": "binding signal", "setting": "SPDEF", "value": 0.724}]}, {"sequence": "GGGTCG", "values": [{"measurement": "binding signal", "setting": "GABPA", "value": 0.674}, {"measurement": "binding signal", "setting": "ETS1", "value": 0.544}, {"measurement": "binding signal", "setting": "SPDEF", "value": 0.597}]}, {"sequence": "CGTTGA", "values": [{"measurement": "binding signal", "setting": "GABPA", "value": 0.733}, {"measurement": "binding signal", "setting": "ETS1", "value": 0.79}, {"measurement": "binding signal", "setting": "SPDEF", "value": 0.849}]}, {"sequence": "AGCTGG", "values": [{"measurement": "binding signal", "setting": "GABPA", "value": 0.862}, {"measurement": "binding signal", "setting": "ETS1", "value": 0.889}, {"measurement": "binding signal", "setting": "SPDEF", "value": 0.786}]}, {"sequence": "AGGCGG", "values": [{"measurement": "binding signal", "setting": "GABPA", "value": 0.249}, {"measurement": "binding signal", "setting": "ETS1", "value": 0.256}, {"measurement": "binding signal", "setting": "SPDEF", "value": 0.263}]}, {"sequence": "TGAGGA", "values": [{"measurement": "binding signal", "setting": "GABPA", "value": 0.751}, {"measurement": "binding signal", "setting": "ETS1", "value": 0.706}, {"measurement": "binding signal", "setting": "SPDEF", "value": 0.599}]}, {"sequence": "GGTCAG", "values": [{"measurement": "binding signal", "setting": "GABPA", "value": 0.569}, {"measurement": "binding signal", "setting": "ETS1", "value": 0.525}, {"measurement": "binding signal", "setting": "SPDEF", "value": 0.532}]}, {"sequence": "GAGCCG", "values": [{"measurement": "binding signal", "setting": "GABPA", "value": 0.391}, {"measurement": "binding signal", "setting": "ETS1", "value": 0.399}, {"measurement": "binding signal", "setting": "SPDEF", "value": 0.377}]}, {"sequence": "CAACAG", "values": [{"measurement": "binding signal", "setting": "GABPA", "value": 0.966}, {"measurement": "binding signal", "setting": "ETS1", "value": 0.93}, {"measurement": "binding signal", "setting": "SPDEF", "value": 0.945}]}, {"sequence": "CCTGTC", "values": [{"measurement": "binding signal", "setting": "GABPA", "value": 0.905}, {"measurement": "binding signal", "setting": "ETS1", "value": 0.98}, {"measurement": "binding signal", "setting": "SPDEF", "value": 0.918}]}, {"sequence": "ATAGGA", "values": [{"measurement": "binding signal", "setting": "GABPA", "value": 0.784}, {"measurement": "binding signal", "setting": "ETS1", "value": 0.787}, {"measurement": "binding signal", "setting": "SPDEF", "value": 0.899}]}, {"sequence": "GCTGTC", "values": [{"measurement": "binding signal", "setting": "GABPA", "value": 0.934}, {"measurement": "binding signal", "setting": "ETS1", "value": 1.02}, {"measurement": "binding signal", "setting": "SPDEF", "value": 0.879}]}, {"sequence": "CGCAGT", "values": [{"measurement": "binding signal", "setting": "GABPA", "value": 0.785}, {"measurement": "binding signal", "setting": "ETS1", "value": 0.783}, {"measurement": "binding signal", "setting": "SPDEF", "value": 0.706}]}, {"sequence": "CGCATC", "values": [{"measurement": "binding signal", "setting": "GABPA", "value": 0.837}, {"measurement": "binding signal", "setting": "ETS1", "value": 0.925}, {"measurement": "binding signal", "setting": "SPDEF", "value": 1.02}]}, {"sequence": "ATAGAG", "values": [{"measurement": "binding signal", "setting": "GABPA", "value": 0.948}, {"measurement": "binding signal", "setting": "ETS1", "value": 0.881}, {"measurement": "binding signal", "setting": "SPDEF", "value": 0.933}]}, {"sequence": "GCACCA", "values": [{"measurement": "binding signal", "setting": "GABPA", "value": 0.899}, {"measurement": "binding signal", "setting": "ETS1", "value": 0.828}, {"measurement": "binding signal", "setting": "SPDEF", "value": 0.858}]}, {"sequence": "AGGCTG", "values": [{"measurement": "binding signal", "setting": "GABPA", "value": 0.698}, {"measurement": "binding signal", "setting": "ETS1", "value": 0.672}, {"measurement": "binding signal", "setting": "SPDEF", "value": 0.658}]}, {"sequence": "GGGCGT", "values": [{"measurement": "binding signal", "setting": "GABPA", "value": 0.403}, {"measurement": "binding signal", "setting": "ETS1", "value": 0.498}, {"measurement": "binding signal", "setting": "SPDEF", "value": 0.491}]}, {"sequence": "ACACGT", "values": [{"measurement": "binding signal", "setting": "GABPA", "value": 0.78}, {"measurement": "binding signal", "setting": "ETS1", "value": 0.766}, {"measurement": "binding signal", "setting": "SPDEF", "value": 0.791}]}, {"sequence": "AGTCTG", "values": [{"measurement": "binding signal", "setting": "GABPA", "value": 0.624}, {"measurement": "binding signal", "setting": "ETS1", "value": 0.657}, {"measurement": "binding signal", "setting": "SPDEF", "value": 0.575}]}, {"sequence": "TCGGGC", "values": [{"measurement": "binding signal", "setting": "GABPA", "value": 0.516}, {"measurement": "binding signal", "setting": "ETS1", "value": 0.496}, {"measurement": "binding signal", "setting": "SPDEF", "value": 0.448}]}, {"sequence": "CATGGA", "values": [{"measurement": "binding signal", "setting": "GABPA", "value": 0.942}, {"measurement": "binding signal", "setting": "ETS1", "value": 0.824}, {"measurement": "binding signal", "setting": "SPDEF", "value": 0.825}]}, {"sequence": "GGTACC", "values": [{"measurement": "binding signal", "setting": "GABPA", "value": 0.798}, {"measurement": "binding signal", "setting": "ETS1", "value": 0.896}, {"measurement": "binding signal", "setting": "SPDEF", "value": 0.883}]}, {"sequence": "TCAGTC", "values": [{"measurement": "binding signal", "setting": "GABPA", "value": 0.62}, {"measurement": "binding signal", "setting": "ETS1", "value": 0.573}, {"measurement": "binding signal", "setting": "SPDEF", "value": 0.611}]}, {"sequence": "AGAGTG", "values": [{"measurement": "binding signal", "setting": "GABPA", "value": 0.633}, {"measurement": "binding signal", "setting": "ETS1", "value": 0.646}, {"measurement": "binding signal", "setting": "SPDEF", "value": 0.601}]}, {"sequence": "TCAGAA", "values": [{"measurement": "binding signal", "setting": "GABPA", "value": 0.984}, {"measurement": "binding signal", "setting": "ETS1", "value": 0.931}, {"measurement": "binding signal", "setting": "SPDEF", "value": 0.919}]}, {"sequence": "GTAGAG", "values": [{"measurement": "binding signal", "setting": "GABPA", "value": 0.594}, {"measurement": "binding signal", "setting": "ETS1", "value": 0.574}, {"measurement": "binding signal", "setting": "SPDEF", "value": 0.625}]}, {"sequence": "GAACCG", "values": [{"measurement": "binding signal", "setting": "GABPA", "value": 0.67}, {"measurement": "binding signal", "setting": "ETS1", "value": 0.671}, {"measurement": "binding signal", "setting": "SPDEF", "value": 0.83}]}, {"sequence": "CGAGCC", "values": [{"measurement": "binding signal", "setting": "GABPA", "value": 0.834}, {"measurement": "binding signal", "setting": "ETS1", "value": 0.735}, {"measurement": "binding signal", "setting": "SPDEF", "value": 0.791}]}, {"sequence": "GGGTGT", "values": [{"measurement": "binding signal", "setting": "GABPA", "value": 0.663}, {"measurement": "binding signal", "setting": "ETS1", "value": 0.735}, {"measurement": "binding signal", "setting": "SPDEF", "value": 0.789}]}, {"sequence": "AGCAGT", "values": [{"measurement": "binding signal", "setting": "GABPA", "value": 0.694}, {"measurement": "binding signal", "setting": "ETS1", "value": 0.697}, {"measurement": "binding signal", "setting": "SPDEF", "value": 0.677}]}, {"sequence": "TCGGCA", "values": [{"measurement": "binding signal", "setting": "GABPA", "value": 0.671}, {"measurement": "binding signal", "setting": "ETS1", "value": 0.694}, {"measurement": "binding signal", "setting": "SPDEF", "value": 0.659}]}, {"sequence": "TCGTAG", "values": [{"measurement": "binding signal", "setting": "GABPA", "value": 0.823}, {"measurement": "binding signal", "setting": "ETS1", "value": 0.828}, {"measurement": "binding signal", "setting": "SPDEF", "value": 0.79}]}]}
